Assay results from publication PMC12040169 (PLOS Biology, 2025).
The other results are listed elsewhere or left out.

System: T1, CTL2-GFP (C. trachomatis L2/434/Bu, GFP-expressing)
T1 construct: L2/434/Bu, GFP-expressing
Set-up: species or system HeLa; Intracellular C. trachomatis growth in HeLa cells, bulk GFP fluorescence relative to DMSO
Details: bulk GFP, single well; 28.5 h, 10 µM; inhibitor

Point of comparison: Cc1cc(=O)n(CC(=O)NC(C)Cc2ccccn2)c2ccccc12 (centres unmarked) [CBK281420], “% of control remaining” value 119.944%. Against it:
- CN1CCN(c2ccccc2NC(=O)c2ccc3ccccc3c2)CC1 [CBK268486] — lower, 90.4708%
- COc1ccc(C(C)C)cc1-c1nc2ncccc2cc1N [CBK067614] — lower, 86.7346%
- COc1ccc(-c2nccnc2NCC2CC2)cc1 [CBK038048] — higher, 208.041%
- Cc1cccc(NCC2CCN(Cc3cc(=O)n4ccccc4n3)C2)n1 (centres unmarked) [CBK305756] — lower, 110.381%
- CCCCN(C)S(=O)(=O)c1ccc(C(C)(C)CC)cc1 [CBK044836] — lower, 103.887%
- Cc1nc(-c2cccnc2)[nH]c(=O)c1CC(=O)N(C)C1CCCCC1 [CBK306310] — lower, 94.3792%
- Cc1ccc(-c2nnc(SCc3cccc4nsnc34)n2C)cc1 [CBK269706] — lower, 110.354%
- O=c1[nH]c(Nc2ccccc2)nc2nccc(-c3ccccc3)c12 [CBK288072] — lower, 117.511%
- COc1ccc(CCN2CCN(c3nccnc3OCC3COc4ccccc4O3)CC2)cc1OC (centres unmarked) [CBK082808T] — lower, 99.4573%
- COc1cncc(-c2cncc(NCCCN3CCOCC3)n2)c1 [CBK037902] — lower, 118.527%
- CC(C)NC(=O)[C@@H](C)C1CC[C@@]2(C)CC[C@H](NC(=O)c3ccncc3)[C@@H](C)[C@@H]2[C@H]1O (some centres unmarked) [CBK289449] — higher, 135.256%
- CS(=O)(=O)c1ccc(Cn2ccnc(N3CCN(C(=O)C4CCCCC4)CC3)c2=O)cc1 [CBK153771] — higher, 149.908%
- Cc1ccc(C2(O)CCN(Cc3cnn(C)c3C)CC2)cc1 [CBK282736] — higher, 162.904%
- CCn1c(CNC(=O)c2cn3cc(C)ccc3n2)nc2ccccc21 [CBK281395] — lower, 99.8098%
- O=C(NCCNCCNC(=O)C1(c2ccccc2)CCCC1)C1(c2ccccc2)CCCC1 [CBK017670] — lower, 14.7357%
- CC(C)Nc1nc2cc(Cl)c(Cl)cc2nc1Sc1nc[nH]n1 [CBK115261] — lower, 89.2832%
- Cc1cccc(NC(=O)C(CC(=O)O)NCc2ccccc2)c1 (centres unmarked) [CBK266821] — higher, 158.409%
- Cc1cc(CN2CCC(O)(c3cccnc3F)CC2)oc1C [CBK282124] — higher, 163.061%
- S=C(NCC1CCN(C(=S)Nc2cccc3ccccc23)CC1)Nc1cccc2ccccc12 [CBK016070] — lower, 84.5048%
- O=C(O)c1cccc(NS(=O)(=O)c2ccc(S(=O)(=O)N3CCCCC3)cc2)c1 [CBK295295] — higher, 134.106%
- Nc1nnc(SCC(=O)N2CCN(C(c3ccccc3)c3ccccc3)CC2)n1-c1ccccc1 [CBK266696] — lower, 94.4055%
- N#CCCN(C(=O)NCc1cccc2ccccc12)C1CCCCC1 [CBK156353] — lower, 103.819%
- COc1cc(NC(=O)CC2(C(=O)O)CCCCC2)ccc1N1CCCC1=O [CBK296761] — higher, 126.263%
- COc1cccc(OCCO)c1 [CBK000514] — higher, 133.328%
- CCCc1ccc(S(=O)(=O)Nc2c(C(=O)N(CC)CC)[nH]c3ccccc23)cc1 [CBK050111] — lower, 114.024%
- O=C(CSc1ccc2ccccc2n1)Nc1ccnc2ccccc12 [CBK176848] — lower, 88.3559%
- O=C(O)CNS(=O)(=O)c1cc(Cl)c(Cl)cc1Cl [CBK266136] — higher, 139.733%
- COc1cc(C(=O)N2CCN(Cc3c[nH]c4ccccc34)CC2)cc(OC)c1OC [CBK301212G] — higher, 166.688%
- CN1CCN(CCCN2C(=O)CSC2c2cccc([N+](=O)[O-])c2)CC1 (centres unmarked) [CBK278237C] — lower, 98.166%
- CCC(C)NC1=NC(=O)C(CC(=O)Nc2ccccc2Cl)S1 (centres unmarked) [CBK059133T] — lower, 112.824%
- Cc1ccc(C(=O)C2=C(O)C(=O)N(CCCn3ccnc3)C2c2ccncc2)cc1 (centres unmarked) [CBK264476] — higher, 134.523%
- c1ccc2cc(-c3cn4ccnc4c(NC4CCOCC4)n3)ccc2c1 [CBK066290] — higher, 174.504%
- Cc1cc(C)n(C2CN(CC(=O)NCc3ccccn3)C2)n1 [CBK306238] — higher, 130.464%
- CC(C)(O)c1cc(CC2(NCC3CCCCC3)COC2)no1 [CBK289656] — higher, 134.727%
- CC(=O)NCCSc1nccnc1N1CCCC1 [CBK105619] — lower, 108.587%
- COc1cc(NC(=O)C2CCCN2)ccc1-n1cccc1 (centres unmarked) [CBK282500] — higher, 140.52%
- CN1CCCc2cc(-c3cncn3CC(=O)NC(C)(C)C)ccc21 [CBK281700] — lower, 113.616%
- COc1ccc2[nH]c3c(c2c1)CCOC31CCN(C(=O)CC(C)CC(=O)O)CC1 (centres unmarked) [CBK047197] — lower, 99.1285%
- O=C(Nc1ccc2ncsc2c1)C1COc2ccccc2O1 (centres unmarked) [CBK287750] — lower, 102.15%
- COC(=O)c1sc(-c2ccsc2)cc1N [CBK006256] — higher, 146.994%
- Cc1ccc([N+](=O)[O-])cc1NC(=O)CSc1nnc(-c2ccco2)o1 [CBK268378] — higher, 121.173%
- CCOC(=O)c1cnn(C)c1-c1ccc(F)cc1OC [CBK149233] — lower, 99.4871%
- Cc1cnccc1CN1CCC[C@@H]2CN(C(=O)CC(C)C)C[C@@H]21 [CBK285289] — lower, 86.2151%
- COCCCNCCSc1ccc(Cl)cc1 [CBK265093] — lower, 112.041%
- Cc1ccn2c(C3CCN(CCc4ccccc4)CC3)nc(-c3ccccc3)c2c1 [CBK035490] — higher, 142.492%
- Ic1cnn(Cc2nc(-c3ccc4c(c3)OCO4)no2)c1 [CBK270050] — lower, 73.707%
- Fc1cccc(Sc2nnnn2-c2ccccc2)c1 [CBK002906] — lower, 102.761%
- O=S(=O)(Nc1cccc2[nH]ccc12)c1sc(Cl)cc1Br [CBK153552] — higher, 125.242%
- O=C(Nc1ccc(Cl)c(Cl)c1)c1cnc2n(c1=O)CCS2 [CBK287381] — higher, 124.333%
- O=C(C1CCCCC1)N1CCC(n2nc(C3CC3)ccc2=O)CC1 [CBK284240] — lower, 108.667%
- CC(C)COC(=O)N1CCN(C2CCc3cc(-c4ccc([S+](C)[O-])cc4)ccc3C2)CC1 (centres unmarked) [CBK173425] — higher, 123.249%
- CC(=O)Nc1cccc(CN2CCCC2CC(O)c2ccccc2)c1 (centres unmarked) [CBK305136] — higher, 120.64%
- O=C(O)/C=C/C(=O)N(Cc1ccccn1)Cc1ccco1 [CBK286660] — higher, 133.734%
- Cc1cnc(CNC(=O)c2ccc(-c3ccoc3)nc2)cn1 [CBK156267] — higher, 162.479%
- O=C(CSc1nnc2ccc(-c3ccccc3)nn12)N1CCCCC1 [CBK287678] — higher, 167.847%
- O=C(O)[C@@H]1CCCN1C(=O)C1CCC(Cn2nnc3ccccc3c2=O)CC1 (some centres unmarked) [CBK286658] — higher, 129.6%
- Cc1cnc2c(c1)cc(C(F)(F)F)n2CC(=O)NC1CC1 [CBK282887] — higher, 122.747%
- CCn1c(SCC(=O)Nc2cc(Cl)ccc2O)nnc1-c1ccccc1 [CBK269680] — lower, 96.6605%
- Cc1nc2sccn2c1CN1CCCC(C(=O)N2CCOCC2)C1 (centres unmarked) [CBK305390] — higher, 126.801%
- FC(F)(F)c1ccc(SCc2ccccc2)nc1 [CBK103715] — lower, 103.421%
- O=[N+]([O-])c1ccccc1S(=O)(=O)Nc1ccc(S(=O)(=O)Nc2ncccn2)cc1 [CBK264768] — lower, 58.2429%
- O=C(NC(=S)Nc1cccc2c(O)cccc12)c1ccc(-c2ccccc2)cc1 [CBK269022] — higher, 139.978%
- CN(C)CCNC(=O)c1sc2ccccc2c1CC1CCCCCN1C(=O)C1CCC1 (centres unmarked) [CBK286096] — lower, 97.4604%
- COc1ccccc1-c1noc(C2CCN(S(=O)(=O)c3ccc(F)cc3)CC2)n1 [CBK269401] — lower, 103.899%
- Cc1cccc(OCC(C)NC(=O)NCCc2cnn(C)c2)c1 (centres unmarked) [CBK304887] — lower, 10.0772%
- Cc1nnnn1-c1cc(NC(=O)N(C)C(C)C)ccc1F [CBK304708] — lower, 94.9468%
- NC(=O)C1(N2CCCCC2)CCN(CC(=O)Nc2ccccc2Sc2ccccc2)CC1 [CBK268488] — higher, 138.938%
- O=C(Cc1c(O)c2ccccc2[nH]c1=O)NCc1ccccc1Cl [CBK160320] — lower, 91.3792%
- N=c1n(CC(=O)O)c2ccccc2n1Cc1ccccc1Cl [CBK262917B] — lower, 100.224%
- O=C(C1CC=CCC1)N1CCCC(c2[nH]ncc2-c2ccncc2)C1 (centres unmarked) [CBK284198] — lower, 91.3108%
- O=C(Cn1cccn1)NC(Cc1ccsc1)c1cccnc1 (centres unmarked) [CBK285396] — lower, 115.98%
- CCC(CN1CCCCC1)n1cncc1-c1cn(C)nc1C (centres unmarked) [CBK281460] — lower, 112.117%
- COCc1nnc(Sc2nc3ccccc3nc2NC(C)C)s1 [CBK115253] — lower, 100%
- NC(=O)c1ccc(-n2cc(-c3ccc(Cl)cc3)nn2)cc1 [CBK113046] — higher, 161.679%
- COc1ccccc1C1(O)CCN(CC(O)c2ccc3c(c2)OCCO3)CC1 (centres unmarked) [CBK286482] — higher, 120.694%
- Cc1ccc(-c2ccc(/C=C(\C#N)c3nc(-c4ccco4)cs3)o2)c([N+](=O)[O-])c1 [CBK266685] — higher, 128.116%
- CCCC(=O)c1ccc(S(=O)(=O)N2CCN(Cc3ccc(C(C)=O)cc3)CC2)cc1 [CBK063159] — lower, 92.8818%
- c1ccc(C(Nc2cnccn2)C2CC2)cc1 (centres unmarked) [CBK304145] — lower, 81.4465%
- CC1=CC(C)C(C(=O)O)C(C(=O)Nc2ccccc2)C1 (centres unmarked) [CBK286851] — lower, 113.847%
